# Laboratory results as given in US8802713B2, “3-alkoxy-1-phenylpyrazole derivatives and pesticides” (Kumiai Chemical Industry Co., Ltd., priority 2007, dated 2014).
# Some entries share one result that the patent states for a list of compounds. For at least one compound, name, drawing or mass did not settle the structure.
# Tested on: two-spotted spider mites
# Assay: Miticidal test on two-spotted spider mites (seedling dip)
# Assay type: in vivo, Tetranvchus urticae
# Settings: 500 ppm active ingredient, soybean seedlings with imago mites dipped, 25° C., 13 days
# Method: A wettable powder prepared in accordance with Formulation Example 2 was diluted with water to a concentration of an active ingredient of 500 ppm. Soybean seedlings which had been inoculated with imago two-spotted spider mites were dipped in the solution and dried in air. The treated soybean seedlings were placed in a thermostatic chamber at 25° C. for 13 days, and the number of live mites were assessed for calculation of the protective value by Equation 1. The test was carried out by one series system.
row,Structure (SMILES),protective value
1,Cc1cc(F)c(-n2nc(OC(C)C(F)(F)C(F)(F)C(F)(F)F)cc2C)cc1[S+]([O-])CC(F)(F)F (stereo not shown) [1-282],≥ 90
2,CC(=O)Nc1cc(OCC(F)(F)C(F)(F)F)nn1-c1cc(SCC2CC2)c(C)cc1F [1-182],≥ 90
3,COc1cc(OCC(F)(F)F)nn1-c1cc([S+]([O-])CC(F)(F)F)c(C)cc1F (stereo not shown) [1-1468],≥ 90
4,Cc1cc(F)c(-n2nc(OC(F)(F)C(F)(F)C(F)(F)C(F)(F)C(F)(F)C(F)(F)F)cc2Cl)cc1[S+]([O-])CC(F)(F)F (stereo not shown) [1-879],≥ 90
5,Cc1cc(F)c(-n2nc(OCC(F)(F)C(F)(F)F)cc2NC(=O)C(F)(F)Cl)cc1[S+]([O-])CC(F)(F)F (stereo not shown) [1-168],≥ 90
6,Cc1cc(F)c(-n2nc(OCC(F)(F)F)cc2C#N)cc1SCC(F)(F)F [1-1439],≥ 90
7,Cc1cc(F)c(-n2nc(OCCOC(C(F)(F)F)(C(F)(F)F)C(F)(F)F)cc2C)cc1[S+]([O-])CC(F)(F)F (stereo not shown) [1-320],≥ 90
8,CCNc1cc(OC(F)(F)C(F)OC(F)(F)C(F)(F)F)nn1-c1cc(SCC(F)(F)F)c(C)cc1F (stereo not shown) [1-1513],≥ 90
9,CON=Cc1cc(OCC(F)(F)C(F)(F)F)nn1-c1cc([S+]([O-])CC(F)(F)F)c(C)cc1F (stereo not shown) [1-208],≥ 90
10,Cc1cc(F)c(-n2cc(Br)c(OCC(F)(F)C(F)(F)C(F)(F)C(F)(F)F)n2)cc1SCC(F)(F)F [1-1509],≥ 90
11,CC(=O)Nc1cc(OCC(F)(F)C(F)(F)C(F)(F)C(F)F)nn1-c1cc(SCC(F)(F)F)c(C)cc1F [1-376],≥ 90
12,CNc1cc(OC(F)(F)C(F)F)nn1-c1cc(SCC(F)(F)F)c(C)cc1F [1-1402],≥ 90
13,C#CCNc1cc(OCC(F)(F)OC(F)(F)C(F)(F)OC(F)(F)F)nn1-c1cc(SCC(F)(F)F)c(C)cc1F [1-590],≥ 90
14,Cc1cc(F)c(-n2nc(OCC(F)(F)C(F)(F)F)c(Br)c2NC(=O)C(F)(F)F)cc1[S+]([O-])CC(F)(F)F (stereo not shown) [1-50],≥ 90
15,Cc1ccc(COc2ccn(-c3cc(SCC(F)(F)F)c(C)cc3F)n2)cc1 [1-1613],≥ 90
16,CC(=O)Nc1cc(OCC#N)nn1-c1cc([S+]([O-])CC(F)(F)F)c(C)cc1F (stereo not shown) [1-1376],≥ 90
17,Cc1cc(F)c(-n2nc(OC(F)(C(F)(F)F)C(F)(F)F)cc2C)cc1[S+]([O-])CC(F)(F)F (stereo not shown) [1-697],≥ 90
18,Cc1cc(F)c(-n2cc(Cl)c(Oc3ccc(C(F)(F)F)cn3)n2)cc1[S+]([O-])CC(F)(F)F (stereo not shown) [1-1576],≥ 90
19,Cc1cc(F)c(-n2ccc(OCC(F)(F)C(F)(F)F)n2)cc1SCC(F)(F)F [1-1385],≥ 90
20,Cc1cc(F)c(-n2nc(OCCC[Si](C)(C)C)cc2C)cc1SCC(F)(F)F [1-299],≥ 90
21,Cc1cc(F)c(-n2nc(OCC(F)(F)C(F)(F)F)cc2CO)cc1[S+]([O-])CC(F)(F)F (stereo not shown) [1-202],≥ 90
22,COc1cc(OC(F)(F)C(F)C(F)(F)F)nn1-c1cc(SCC(F)(F)F)c(C)cc1F (stereo not shown) [1-195],≥ 90
23,Cc1cc(F)c(-n2cc(Br)c(OC(F)(F)C(F)OC(F)(F)C(F)(F)F)n2)cc1[S+]([O-])CC(F)(F)F (stereo not shown) [1-1195],≥ 90
24,Cc1cc(F)c(-n2nc(OCC(F)(F)C(F)(F)C(F)(F)C(F)(F)F)c(Br)c2N)cc1SCC(F)(F)F [1-1507],≥ 90

row,Structure (SMILES),protective value
1,Cc1cc(F)c(-n2nc(OCC(F)(F)C(F)(F)F)cc2C(F)F)cc1[S+]([O-])CC(F)(F)F (stereo not shown) [1-1542],≥ 90
2,Cc1cc(F)c(-n2nc(OCC[Si](C)(C)C)cc2C)cc1[S+]([O-])CC(F)(F)F (stereo not shown) [1-286],≥ 90
3,COc1cc(OCC(F)(F)F)nn1-c1cc(SCC(F)(F)F)c(C)cc1F [1-1467],≥ 90
4,Cc1cc(F)c(-n2nc(OC(F)(F)C(F)C(F)(F)F)c(I)c2N)cc1[S+]([O-])CC(F)(F)F (stereo not shown) [1-1548],≥ 90
5,Cc1cc(F)c(-n2nc(OCC(F)(F)F)cc2N)cc1[S+]([O-])CC(F)(F)F (stereo not shown) [1-1366],≥ 90
6,Cc1cc(F)c(-n2nc(OC(F)(F)C(F)C(F)(F)F)cc2C(F)F)cc1[S+]([O-])CC(F)(F)F (stereo not shown) [1-1530],≥ 90
7,Cc1cc(F)c(-n2nc(OCCCC(F)(F)C(F)(F)C(F)(F)F)cc2C)cc1[S+]([O-])CC(F)(F)F (stereo not shown) [1-306],≥ 90
8,Cc1cc(F)c(-n2cc(Cl)c(OC(F)(F)C(F)OC(F)(F)C(F)(F)F)n2)cc1[S+]([O-])CC(F)(F)F (stereo not shown) [1-383],≥ 90
9,CCC(CC)Oc1cc(C)n(-c2cc(SCC(F)(F)F)c(C)cc2F)n1 [1-237],≥ 90
10,C#CCNc1cc(OC(F)(F)C(F)OC(F)(F)C(F)(F)F)nn1-c1cc(SCC(F)(F)F)c(C)cc1F (stereo not shown) [1-353],≥ 90
11,COCCOCCOc1cc(C)n(-c2cc(SCC(F)(F)F)c(C)cc2F)n1 [1-295],≥ 90
12,Cc1cc(F)c(-n2nc(OC(F)(F)C(F)OC(F)(F)C(F)(F)F)cc2C#N)cc1[S+]([O-])CC(F)(F)F (stereo not shown) [1-671],≥ 90
13,CC(=O)Nc1cc(OCC(F)(F)Cl)nn1-c1cc([S+]([O-])CC(F)(F)F)c(C)cc1F (stereo not shown) [1-1372],≥ 90
14,Cc1cc(F)c(-n2nc(OCC(F)(F)C(F)(F)F)c(Br)c2N)cc1[S+]([O-])CC(F)(F)F (stereo not shown) [1-46],≥ 90
15,Cc1cc(F)c(-n2nc(OC(F)(F)C(F)OC(F)(F)C(F)(F)F)c(Cl)c2N=Cc2ccccc2)cc1SCC(F)(F)F (stereo not shown) [1-1549],≥ 90
16,Cc1cc(F)c(-n2nc(OC(F)(F)C(F)(F)C(F)(F)C(F)(F)F)cc2N)cc1[S+]([O-])CC(F)(F)F (stereo not shown) [1-443],≥ 90
17,Cc1cc(F)c(-n2cc(Cl)c(OCC(F)(F)F)n2)cc1[S+]([O-])CC(F)(F)F (stereo not shown) [1-1380],≥ 90
18,Cc1cc(F)c(-n2nc(OCC(F)(F)C(F)(F)C(F)(F)C(F)F)cc2C)cc1[S+]([O-])CC(F)(F)F (stereo not shown) [1-322],≥ 90
19,Cc1cc(F)c(-n2nc(OCC(F)(F)C(F)(F)C(F)(F)C(F)(F)F)cc2CF)cc1[S+]([O-])CC(F)(F)F (stereo not shown) [1-1582],≥ 90
20,Cc1cc(F)c(-n2nc(OCC3CCC3)cc2C)cc1SCC(F)(F)F [1-227],≥ 90
21,Cc1cc(F)c(-n2cc(Cl)c(OCC(F)C(F)(F)F)n2)cc1[S+]([O-])CC(F)(F)F (stereo not shown) [1-258],≥ 90
22,Cc1cc(F)c(-n2nc(OC(F)(F)C(F)(F)C(F)(F)F)cc2Cl)cc1[S+]([O-])CC(F)(F)F (stereo not shown) [1-873],≥ 90
23,CCCOc1ccn(-c2cc([S+]([O-])CC(F)(F)F)c(C)cc2F)n1 (stereo not shown) [1-1538],≥ 90
24,Cc1cc(F)c(-n2nc(OCCC(F)(F)C(F)(F)C(F)(F)C(F)(F)C(F)(F)C(F)(F)F)cc2C)cc1[S+]([O-])CC(F)(F)F (stereo not shown) [1-314],≥ 90

row,Structure (SMILES),protective value
1,Cc1cc(F)c(-n2nc(OCCC(F)(F)C(F)(F)C(F)(F)C(F)(F)F)cc2C)cc1SCC(F)(F)F [1-311],≥ 90
2,Cc1cc(F)c(-n2nc(OC(F)(F)C(F)OC(F)(F)F)cc2Cl)cc1[S+]([O-])CC(F)(F)F (stereo not shown) [1-889],≥ 90
3,Cc1cc(F)c(-n2ccc(OC(C)C(F)(F)F)n2)cc1SCC(F)(F)F (stereo not shown) [1-1519],≥ 90
4,CNc1c(Cl)c(OCC(F)(F)C(F)(F)F)nn1-c1cc(SCC(F)(F)F)c(C)cc1F [1-214],≥ 90
5,Cc1cc(F)c(-n2nc(OCC(F)(F)F)c(Cl)c2N)cc1SCC(F)(F)F [1-1383],≥ 90
6,Cc1cc(F)c(-n2nc(OCC(F)(F)C(F)(F)F)cc2C=NO)cc1[S+]([O-])CC(F)(F)F (stereo not shown) [1-206],≥ 90
7,Cc1cc(F)c(-n2nc(OC(F)(F)C(F)OC(F)(F)C(F)(F)C(F)(F)F)cc2N)cc1[S+]([O-])CC(F)(F)F (stereo not shown) [1-461],≥ 90
8,Cc1cc(F)c(-n2ccc(OC(C)C)n2)cc1[S+]([O-])CC(F)(F)F (stereo not shown) [1-1540],≥ 90
9,CNc1cc(OC(F)(F)C(F)F)nn1-c1cc([S+]([O-])CC(F)(F)F)c(C)cc1F (stereo not shown) [1-1403],≥ 90
10,CON=Cc1cc(OCC(F)(F)C(F)(F)C(F)(F)C(F)(F)F)nn1-c1cc(SCC(F)(F)F)c(C)cc1F [1-331],≥ 90
11,CC(=O)Nc1cc(OC(C)C#N)nn1-c1cc([S+]([O-])CC(F)(F)F)c(C)cc1F (stereo not shown) [1-246],≥ 90
12,CC(=O)Nc1cc(OC(F)(C(F)(F)F)C(F)(F)F)nn1-c1cc([S+]([O-])CC(F)(F)F)c(C)cc1F (stereo not shown) [1-485],≥ 90
13,Cc1cc(F)c(-n2nc(OC(F)(F)C(F)OC(F)(F)C(F)(F)F)cc2N)cc1SCC(F)(F)F (stereo not shown) [1-458],≥ 90
14,CNc1cc(OC(F)(F)C(F)(F)C(F)(F)C(F)(F)C(F)(F)C(F)(F)F)nn1-c1cc([S+]([O-])CC(F)(F)F)c(C)cc1F (stereo not shown) [1-527],≥ 90
15,Cc1cc(F)c(-n2nc(OC(F)(F)C(F)(F)C(F)(F)C(F)(F)C(F)(F)C(F)(F)F)cc2C)cc1SCC(F)(F)F [1-702],≥ 90
16,CNc1cc(OC(F)(F)C(F)OC(F)(F)C(F)(F)F)nn1-c1cc(SCC(F)(F)F)c(C)cc1F (stereo not shown) [1-345],≥ 90
17,Cc1cc(F)c(-n2nc(OCCCC(F)(F)C(F)(F)C(F)(F)F)cc2C)cc1SCC(F)(F)F [1-305],≥ 90
18,Cc1cc(F)c(-n2ccc(OCC(F)(F)F)n2)cc1SCC(F)(F)F [1-1363],≥ 90
19,C=CC(=O)Nc1cc(OCC(F)(F)F)nn1-c1cc([S+]([O-])CC(F)(F)F)c(C)cc1F (stereo not shown) [1-1456],≥ 90
20,Cc1cc(F)c(-n2nc(OCC(F)(F)C(F)(F)C(F)(F)C(F)(F)F)c(Cl)c2Cl)cc1[S+]([O-])CC(F)(F)F (stereo not shown) [1-1512],≥ 90
21,Cc1cc(F)c(-n2nc(OCC(F)(F)C(F)(F)C(F)(F)C(F)F)cc2C)cc1SCC(F)(F)F [1-321],≥ 90
22,Cc1cc(F)c(-n2nc(OCC#N)cc2C)cc1SCC(F)(F)F [1-1436],≥ 90
